Reference: PubChem BioAssay AID1259254 (NCATS, 2017)

- Screen: 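Gene knock-downs that lead to re-replication, shown by excess G2 DNA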 (primary screen)
- Cell system: human HCT116 colorectal cancer cells
- Reagent: single siRNA against human genes
- Time to read-out: 3 days
- Measurement: 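Nuclei stained with Hoechst and imaged; cell-cycle phase assigned by DNA content; G2 share scaled per plate, non-targeting siRNA 0%, GMNN siRNA 100%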
- Direction: G2 robust z-score and G2 cells, % of GMNN control: higher = more G2 cells, more excess DNA replication
- Call rule: 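Active siRNAs have a G2 robust z of 5 or more median absolute deviations over the median, which in these data means about 38% or higher of GMNN control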
The whole screen tested about 59,000 reagents; shown is a random part of them. Over the whole deposit, about 1,550 (2.6%) got an active call. 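G2 share is only a proxy for re-replication; each gene was hit by three separate siRNAs, and active genes were retested.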 Entries without a mark were called inactive. Reagents against one gene are numbered here. Not all columns of the deposit are shown. Not given: the amount of reagent.

Silencing of OR51B4 #1 came out at: G2 robust z-score 0.599; G2 cells, % of GMNN control 7.19.
With knock-down of OR51B4 #2, the screen gave G2 robust z-score 1.75; G2 cells, % of GMNN control 15.3.
Against OR51B4 #3, the entry reads G2 robust z-score 0.523; G2 cells, % of GMNN control 6.65.
With knock-down of ZNF818P #1 the results were G2 robust z-score -0.204; G2 cells, % of GMNN control 1.53.
With knock-down of ZNF818P #2, the screen gave G2 robust z-score 1.08; G2 cells, % of GMNN control 10.5.
With knock-down of ZNF818P #3, the screen gave G2 robust z-score 2.76; G2 cells, % of GMNN control 22.4.
Against TAF8 #1, the entry reads G2 robust z-score -0.449; G2 cells, % of GMNN control -0.19.
Against TAF8 #2 the deposit lists G2 robust z-score 0.736; G2 cells, % of GMNN control 8.14.
Against TAF8 #3, the values are G2 robust z-score 0.323; G2 cells, % of GMNN control 5.24.
OR2W3 #1 scored G2 robust z-score 1.58; G2 cells, % of GMNN control 14.1.
With knock-down of OR2W3 #2, the screen gave G2 robust z-score -0.252; G2 cells, % of GMNN control 1.19.
Depletion of OR2W3 #3 gave: G2 robust z-score -0.111; G2 cells, % of GMNN control 2.18.
Silencing of VARS1 #1 gave: G2 robust z-score 0.103; G2 cells, % of GMNN control 3.69.
Knock-down of VARS1 #2 gave: G2 robust z-score 2.86; G2 cells, % of GMNN control 23.1.
VARS1 #3 gave G2 robust z-score 0.0732; G2 cells, % of GMNN control 3.48.
TRAPPC5 #1 showed G2 robust z-score 1.17; G2 cells, % of GMNN control 11.2.
With knock-down of TRAPPC5 #2 the results were G2 robust z-score 0.669; G2 cells, % of GMNN control 7.67.
TRAPPC5 #3 showed G2 robust z-score 0.394; G2 cells, % of GMNN control 5.74.
Silencing of LINC00619 #1 gave: G2 robust z-score 1.58; G2 cells, % of GMNN control 14.1.
Depletion of LINC00619 #2 came out at: G2 robust z-score -0.904; G2 cells, % of GMNN control -3.4.
After knock-down of LINC00619 #3, the record shows G2 robust z-score -0.177; G2 cells, % of GMNN control 1.72.
With knock-down of CDYL2 #1, the record shows G2 robust z-score -0.395; G2 cells, % of GMNN control 0.189.
CDYL2 #2 scored G2 robust z-score 2.14; G2 cells, % of GMNN control 18.
For CDYL2 #3, the entry reads G2 robust z-score -0.0523; G2 cells, % of GMNN control 2.6.

Ordered by “G2 cells, % of GMNN control” (lowest first): some entries from above
TAF8 #3 — G2 robust z-score: 0.323; G2 cells, % of GMNN control: 5.24
TAF8 #2 — G2 robust z-score: 0.736; G2 cells, % of GMNN control: 8.14
OR2W3 #1 — G2 robust z-score: 1.58; G2 cells, % of GMNN control: 14.1
